We go through 24 targets from the supplement of paper PMC10849652.

Amino acid sequences for entries named in this document (tags omitted). A change or cut given only in a name is not applied to a line headed by its entry.
UniProt P04150: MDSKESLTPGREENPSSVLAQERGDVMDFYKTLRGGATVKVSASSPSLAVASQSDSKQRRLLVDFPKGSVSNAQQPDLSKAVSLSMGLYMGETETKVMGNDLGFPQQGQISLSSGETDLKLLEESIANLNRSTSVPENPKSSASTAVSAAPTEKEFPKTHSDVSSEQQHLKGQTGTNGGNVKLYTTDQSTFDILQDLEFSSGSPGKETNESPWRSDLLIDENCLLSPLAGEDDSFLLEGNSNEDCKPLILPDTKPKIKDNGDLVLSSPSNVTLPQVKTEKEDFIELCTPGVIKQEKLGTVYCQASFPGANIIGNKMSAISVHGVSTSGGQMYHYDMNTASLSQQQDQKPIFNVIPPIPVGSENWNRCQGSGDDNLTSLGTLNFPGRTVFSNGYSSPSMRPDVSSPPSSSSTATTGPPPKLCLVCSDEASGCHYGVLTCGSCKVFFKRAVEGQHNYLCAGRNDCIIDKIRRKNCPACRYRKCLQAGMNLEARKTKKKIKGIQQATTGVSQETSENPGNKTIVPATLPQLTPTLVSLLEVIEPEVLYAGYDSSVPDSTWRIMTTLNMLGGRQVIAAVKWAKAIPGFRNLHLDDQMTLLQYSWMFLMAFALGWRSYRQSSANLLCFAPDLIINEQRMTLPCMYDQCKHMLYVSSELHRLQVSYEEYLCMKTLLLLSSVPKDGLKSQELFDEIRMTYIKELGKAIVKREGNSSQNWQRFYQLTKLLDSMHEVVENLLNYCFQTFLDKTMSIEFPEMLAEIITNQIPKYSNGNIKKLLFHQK
UniProt Q92686, whole entry, looked up: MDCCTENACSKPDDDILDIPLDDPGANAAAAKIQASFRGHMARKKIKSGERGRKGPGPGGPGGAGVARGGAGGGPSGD
UniProt O60936: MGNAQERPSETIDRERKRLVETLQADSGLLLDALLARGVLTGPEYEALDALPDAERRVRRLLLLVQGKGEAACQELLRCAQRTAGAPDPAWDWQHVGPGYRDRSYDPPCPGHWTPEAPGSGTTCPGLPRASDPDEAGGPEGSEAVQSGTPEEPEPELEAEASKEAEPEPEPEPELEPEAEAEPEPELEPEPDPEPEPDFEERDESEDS
UniProt Q12980: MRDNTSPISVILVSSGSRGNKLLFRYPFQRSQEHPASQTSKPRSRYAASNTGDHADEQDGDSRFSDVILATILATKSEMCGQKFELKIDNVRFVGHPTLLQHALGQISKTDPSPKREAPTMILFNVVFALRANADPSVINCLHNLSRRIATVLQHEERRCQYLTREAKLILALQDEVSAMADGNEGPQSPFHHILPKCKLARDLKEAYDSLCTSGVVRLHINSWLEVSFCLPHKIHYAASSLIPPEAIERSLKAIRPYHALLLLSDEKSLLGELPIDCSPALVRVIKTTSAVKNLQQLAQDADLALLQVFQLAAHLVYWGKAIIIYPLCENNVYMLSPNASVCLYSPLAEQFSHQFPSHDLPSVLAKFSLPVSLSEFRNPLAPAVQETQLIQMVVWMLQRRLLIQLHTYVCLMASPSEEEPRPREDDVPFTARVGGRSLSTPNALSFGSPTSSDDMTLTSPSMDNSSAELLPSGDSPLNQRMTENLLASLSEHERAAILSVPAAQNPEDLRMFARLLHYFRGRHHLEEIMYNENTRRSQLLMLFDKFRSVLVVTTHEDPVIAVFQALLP
UniProt P13056: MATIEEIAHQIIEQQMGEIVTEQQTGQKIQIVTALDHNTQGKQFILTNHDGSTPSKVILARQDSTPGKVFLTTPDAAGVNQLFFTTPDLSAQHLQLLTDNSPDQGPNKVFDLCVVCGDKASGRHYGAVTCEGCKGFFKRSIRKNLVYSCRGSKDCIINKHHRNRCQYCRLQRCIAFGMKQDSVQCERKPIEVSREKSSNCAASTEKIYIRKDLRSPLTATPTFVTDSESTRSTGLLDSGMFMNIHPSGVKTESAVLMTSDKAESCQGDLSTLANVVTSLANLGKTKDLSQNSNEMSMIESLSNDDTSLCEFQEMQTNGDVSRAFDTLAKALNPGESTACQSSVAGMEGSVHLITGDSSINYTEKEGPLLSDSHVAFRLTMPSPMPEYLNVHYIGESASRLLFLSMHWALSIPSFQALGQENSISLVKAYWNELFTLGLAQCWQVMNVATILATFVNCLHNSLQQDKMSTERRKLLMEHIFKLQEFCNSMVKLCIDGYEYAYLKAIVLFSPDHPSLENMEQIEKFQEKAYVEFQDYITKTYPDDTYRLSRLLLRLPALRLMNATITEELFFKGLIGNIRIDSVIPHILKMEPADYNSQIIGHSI
UniProt Q9Y5A7: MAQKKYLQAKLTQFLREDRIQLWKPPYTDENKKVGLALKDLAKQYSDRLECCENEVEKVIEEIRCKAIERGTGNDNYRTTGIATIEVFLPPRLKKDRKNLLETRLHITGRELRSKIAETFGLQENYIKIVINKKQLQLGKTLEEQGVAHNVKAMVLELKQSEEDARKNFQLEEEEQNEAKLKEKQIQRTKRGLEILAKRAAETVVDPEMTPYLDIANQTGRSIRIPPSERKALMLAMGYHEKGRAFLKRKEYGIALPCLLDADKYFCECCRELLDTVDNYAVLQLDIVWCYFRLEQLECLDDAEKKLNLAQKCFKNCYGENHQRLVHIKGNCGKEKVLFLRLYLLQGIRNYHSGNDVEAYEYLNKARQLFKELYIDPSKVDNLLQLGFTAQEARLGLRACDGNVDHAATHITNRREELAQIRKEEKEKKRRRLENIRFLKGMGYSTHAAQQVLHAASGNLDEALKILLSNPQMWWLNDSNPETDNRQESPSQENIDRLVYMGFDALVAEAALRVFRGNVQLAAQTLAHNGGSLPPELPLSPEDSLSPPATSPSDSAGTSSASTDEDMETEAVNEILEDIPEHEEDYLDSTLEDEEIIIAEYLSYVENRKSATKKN
UniProt O00746: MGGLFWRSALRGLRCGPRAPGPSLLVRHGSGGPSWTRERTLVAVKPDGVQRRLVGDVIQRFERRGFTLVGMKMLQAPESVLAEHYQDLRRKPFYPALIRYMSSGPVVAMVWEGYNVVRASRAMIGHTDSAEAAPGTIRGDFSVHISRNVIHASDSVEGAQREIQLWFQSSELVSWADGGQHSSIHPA
UniProt P48645: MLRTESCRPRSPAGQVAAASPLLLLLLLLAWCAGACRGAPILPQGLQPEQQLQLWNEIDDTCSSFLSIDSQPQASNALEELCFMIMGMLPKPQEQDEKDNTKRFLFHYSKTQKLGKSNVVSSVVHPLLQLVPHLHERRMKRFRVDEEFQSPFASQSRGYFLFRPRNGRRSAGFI
UniProt P53370: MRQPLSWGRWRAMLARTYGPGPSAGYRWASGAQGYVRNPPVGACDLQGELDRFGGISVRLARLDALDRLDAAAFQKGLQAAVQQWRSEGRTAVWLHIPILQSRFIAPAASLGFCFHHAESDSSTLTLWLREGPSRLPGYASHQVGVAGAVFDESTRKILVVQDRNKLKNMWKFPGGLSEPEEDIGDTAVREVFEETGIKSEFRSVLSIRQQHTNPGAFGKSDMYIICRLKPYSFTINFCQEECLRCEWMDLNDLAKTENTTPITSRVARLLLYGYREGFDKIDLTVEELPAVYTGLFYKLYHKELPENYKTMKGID
UniProt P10588: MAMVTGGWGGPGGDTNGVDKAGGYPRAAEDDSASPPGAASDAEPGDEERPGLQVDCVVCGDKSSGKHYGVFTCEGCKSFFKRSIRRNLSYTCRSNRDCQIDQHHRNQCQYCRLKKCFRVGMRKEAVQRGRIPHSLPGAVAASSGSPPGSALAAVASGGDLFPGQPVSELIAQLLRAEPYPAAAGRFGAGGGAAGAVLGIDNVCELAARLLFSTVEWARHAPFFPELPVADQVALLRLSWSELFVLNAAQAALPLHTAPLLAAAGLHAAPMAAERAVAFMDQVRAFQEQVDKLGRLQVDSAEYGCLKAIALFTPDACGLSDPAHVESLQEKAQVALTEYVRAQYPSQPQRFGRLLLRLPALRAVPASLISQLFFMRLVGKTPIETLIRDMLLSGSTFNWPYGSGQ
UniProt P04629: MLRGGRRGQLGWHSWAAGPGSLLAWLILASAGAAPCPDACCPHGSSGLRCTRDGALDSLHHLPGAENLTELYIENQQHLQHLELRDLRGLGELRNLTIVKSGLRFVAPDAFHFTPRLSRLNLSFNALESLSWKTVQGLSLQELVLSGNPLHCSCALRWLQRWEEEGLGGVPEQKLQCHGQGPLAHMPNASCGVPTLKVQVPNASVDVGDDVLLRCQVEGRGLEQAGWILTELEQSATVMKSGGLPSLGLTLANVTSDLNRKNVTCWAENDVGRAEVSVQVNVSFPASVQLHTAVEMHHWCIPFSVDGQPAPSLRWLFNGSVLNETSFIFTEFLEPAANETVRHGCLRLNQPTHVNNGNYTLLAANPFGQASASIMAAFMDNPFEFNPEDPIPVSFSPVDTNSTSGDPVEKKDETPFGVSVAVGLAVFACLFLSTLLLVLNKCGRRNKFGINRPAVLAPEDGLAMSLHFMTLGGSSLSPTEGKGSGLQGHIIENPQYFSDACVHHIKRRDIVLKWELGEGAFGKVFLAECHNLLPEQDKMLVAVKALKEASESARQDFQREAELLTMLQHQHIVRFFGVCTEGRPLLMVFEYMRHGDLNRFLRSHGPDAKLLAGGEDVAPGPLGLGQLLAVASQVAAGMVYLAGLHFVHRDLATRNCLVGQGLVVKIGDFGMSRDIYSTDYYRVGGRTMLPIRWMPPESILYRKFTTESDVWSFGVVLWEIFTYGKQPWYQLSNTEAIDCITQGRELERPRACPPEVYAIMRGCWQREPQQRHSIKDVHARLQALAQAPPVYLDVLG
UniProt Q9UHK0: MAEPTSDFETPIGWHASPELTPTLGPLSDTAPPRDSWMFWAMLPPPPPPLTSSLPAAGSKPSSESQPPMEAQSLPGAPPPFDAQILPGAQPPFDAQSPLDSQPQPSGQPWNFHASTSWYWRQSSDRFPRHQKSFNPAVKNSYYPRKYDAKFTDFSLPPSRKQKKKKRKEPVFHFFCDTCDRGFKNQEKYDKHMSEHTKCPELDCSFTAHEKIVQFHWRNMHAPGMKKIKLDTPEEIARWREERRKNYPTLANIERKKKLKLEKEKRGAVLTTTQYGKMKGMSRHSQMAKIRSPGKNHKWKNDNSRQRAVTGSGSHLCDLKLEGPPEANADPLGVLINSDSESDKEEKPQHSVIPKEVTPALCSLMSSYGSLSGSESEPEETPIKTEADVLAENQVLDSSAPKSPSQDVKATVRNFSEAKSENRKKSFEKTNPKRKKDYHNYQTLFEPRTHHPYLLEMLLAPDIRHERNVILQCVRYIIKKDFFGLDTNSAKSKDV
UniProt P69849: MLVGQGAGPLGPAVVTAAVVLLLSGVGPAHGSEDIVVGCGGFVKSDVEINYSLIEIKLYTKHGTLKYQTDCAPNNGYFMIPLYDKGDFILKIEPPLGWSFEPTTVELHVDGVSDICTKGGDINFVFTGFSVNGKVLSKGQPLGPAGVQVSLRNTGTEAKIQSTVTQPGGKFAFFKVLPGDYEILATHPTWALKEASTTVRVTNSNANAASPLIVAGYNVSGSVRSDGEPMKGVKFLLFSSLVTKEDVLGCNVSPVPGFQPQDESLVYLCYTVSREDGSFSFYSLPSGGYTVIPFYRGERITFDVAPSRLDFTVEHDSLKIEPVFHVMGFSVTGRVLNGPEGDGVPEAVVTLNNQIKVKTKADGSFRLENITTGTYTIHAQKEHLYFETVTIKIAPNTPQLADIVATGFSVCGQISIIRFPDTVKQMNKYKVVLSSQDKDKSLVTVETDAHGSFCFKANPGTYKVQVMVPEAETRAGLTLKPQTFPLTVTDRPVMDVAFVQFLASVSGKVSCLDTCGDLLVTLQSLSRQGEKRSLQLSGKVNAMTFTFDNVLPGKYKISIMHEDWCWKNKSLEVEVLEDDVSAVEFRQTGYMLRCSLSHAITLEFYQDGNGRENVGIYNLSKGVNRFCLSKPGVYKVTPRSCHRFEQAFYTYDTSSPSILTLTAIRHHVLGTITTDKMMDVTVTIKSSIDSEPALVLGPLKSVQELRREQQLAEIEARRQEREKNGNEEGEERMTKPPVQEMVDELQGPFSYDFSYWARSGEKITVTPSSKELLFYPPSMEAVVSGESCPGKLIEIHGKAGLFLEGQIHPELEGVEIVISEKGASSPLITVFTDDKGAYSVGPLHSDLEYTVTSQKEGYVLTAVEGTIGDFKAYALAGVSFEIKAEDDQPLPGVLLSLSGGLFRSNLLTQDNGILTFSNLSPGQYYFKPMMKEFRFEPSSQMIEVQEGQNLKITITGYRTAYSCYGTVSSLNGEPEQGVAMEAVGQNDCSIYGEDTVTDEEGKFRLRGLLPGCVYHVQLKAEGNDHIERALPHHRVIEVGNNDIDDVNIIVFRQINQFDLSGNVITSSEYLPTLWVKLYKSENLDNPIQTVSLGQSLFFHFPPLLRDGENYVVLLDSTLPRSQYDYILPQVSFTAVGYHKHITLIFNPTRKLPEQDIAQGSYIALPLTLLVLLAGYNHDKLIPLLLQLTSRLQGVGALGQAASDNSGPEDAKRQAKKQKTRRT

The list shows a part of the results.

Compound in this experiment: C[C@@H](Oc1cc(-c2cnn(C3CCNCC3)c2)cnc1N)c1c(Cl)ccc(F)c1Cl [crizotinib]
The experiment in a line: log2 fold change, soluble protein after heating vs DMSO (PISA); higher = thermal stabilisation; K562 lysate, 10 uM; active = over 0.2 and 3.5 SD of the protein, either way, in both replicates (recomputed). A digest of the protocol:
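A 30 min treatment with 10 μM compound was applied to crude K562 extract at 1 mg/mL protein in PBS pH 7.4 with 1 mM MgCl2. Heating for 3 min spanned 48°C-58°C, after which aliquots were pooled, adjusted to 0.5% NP-40 at 4°C and spun at 21,000xg for 90 min. TMTpro 16plex LC-MS/MS of the supernatant, with channel sums equalised, gave values recorded as log-two fold change in thermal stability against solvent controls, from duplicates.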
Regarding NR3C1 isoform 3 (UniProt P04150), the log2 fold change was inactive: 0.012.

Take NPRL2 (UniProt Q8WTW4): the log2 fold change was inactive: 0.132.

As to NRGN (UniProt Q92686), the log2 fold change is inactive: -0.099.

As to NOL3 isoform 3 (UniProt O60936), the log2 fold change was inactive: 0.155.

On to NPRL3 (UniProt Q12980), for which the log2 fold change is inactive: -0.137.

Turning to NR2C1 (UniProt P13056), the log2 fold change was inactive: 0.161.

As for NPLOC4 (UniProt I3L3I1), the log2 fold change is inactive: -0.53.

Consider NUB1 isoform 2 (UniProt Q9Y5A7), for which the log2 fold change was inactive: 0.015.

Regarding NT5C2 (UniProt Q5JUV3), the log2 fold change was inactive: -0.179.

Consider NME4 (UniProt O00746), for which the log2 fold change was inactive: -0.02.

Regarding NMU (UniProt P48645), the log2 fold change was inactive: -0.079.

With NUDT6 (UniProt P53370), the log2 fold change is inactive: 0.051.

As for NR2F6 (UniProt P10588), the log2 fold change is inactive: -0.046.

In the case of NOL8 (UniProt Q76FK4), the log2 fold change was inactive: -0.049.

Regarding NTAN1 (UniProt Q96AB6), the log2 fold change was inactive: -0.049.

In the case of NOCT (UniProt Q9UK39), the log2 fold change is inactive: 0.024.

Consider NTRK1 (UniProt P04629), for which the log2 fold change is inactive: 0.037.

In the case of NMRK1 (UniProt Q9NWW6), the log2 fold change is inactive: -0.049.

Take NUDT22 (UniProt Q9BRQ3): the log2 fold change is inactive: 0.03.

NUFIP1 (UniProt Q9UHK0): the log2 fold change is inactive: -0.162.

Regarding NSD3 (UniProt Q9BZ95), the log2 fold change was inactive: -0.081.

As for NOMO3 (UniProt P69849), the log2 fold change is inactive: -0.061.

With NUDT18 (UniProt Q6ZVK8), the log2 fold change was inactive: -0.077.

In the case of NOM1 (UniProt Q5C9Z4), the log2 fold change was inactive: -0.059.
